This is one part of the list.
Assays:
Assay in all cases: log2 fold change, soluble protein after heating vs DMSO (PISA); higher = thermal stabilisation; K562 cells, 10 uM, 30 min; active = over 0.2 and 3.5 SD of the protein, either way, in both replicates (recomputed)
[1] = compound: NC(=O)Nc1cc(-c2cccc(F)c2)sc1C(=O)N[C@H]1CCCNC1
Summary of the method: (§1)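 K562 cells at 2×10^6 cells/mL were exposed to 10 μM compound for 30 min, then aliquots were heated for 3 min across 48°C-58°C, pooled, and extracted in PBS containing 0.5% NP-40 at 4°C. The supernatant after 21,000xg for 90 min was taken as soluble protein and measured by TMTpro 16plex LC-MS/MS with channel sums equalised. Thermal stability is reported relative to control samples, with values from duplicates. Fold changes are given on a log2 scale.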

Protein sequences, listed by entry. Tags and fused reporters are not part of them. Lines headed by an entry give the natural chain unless they say otherwise; changes in a name come on top.
UniProt Q9H269: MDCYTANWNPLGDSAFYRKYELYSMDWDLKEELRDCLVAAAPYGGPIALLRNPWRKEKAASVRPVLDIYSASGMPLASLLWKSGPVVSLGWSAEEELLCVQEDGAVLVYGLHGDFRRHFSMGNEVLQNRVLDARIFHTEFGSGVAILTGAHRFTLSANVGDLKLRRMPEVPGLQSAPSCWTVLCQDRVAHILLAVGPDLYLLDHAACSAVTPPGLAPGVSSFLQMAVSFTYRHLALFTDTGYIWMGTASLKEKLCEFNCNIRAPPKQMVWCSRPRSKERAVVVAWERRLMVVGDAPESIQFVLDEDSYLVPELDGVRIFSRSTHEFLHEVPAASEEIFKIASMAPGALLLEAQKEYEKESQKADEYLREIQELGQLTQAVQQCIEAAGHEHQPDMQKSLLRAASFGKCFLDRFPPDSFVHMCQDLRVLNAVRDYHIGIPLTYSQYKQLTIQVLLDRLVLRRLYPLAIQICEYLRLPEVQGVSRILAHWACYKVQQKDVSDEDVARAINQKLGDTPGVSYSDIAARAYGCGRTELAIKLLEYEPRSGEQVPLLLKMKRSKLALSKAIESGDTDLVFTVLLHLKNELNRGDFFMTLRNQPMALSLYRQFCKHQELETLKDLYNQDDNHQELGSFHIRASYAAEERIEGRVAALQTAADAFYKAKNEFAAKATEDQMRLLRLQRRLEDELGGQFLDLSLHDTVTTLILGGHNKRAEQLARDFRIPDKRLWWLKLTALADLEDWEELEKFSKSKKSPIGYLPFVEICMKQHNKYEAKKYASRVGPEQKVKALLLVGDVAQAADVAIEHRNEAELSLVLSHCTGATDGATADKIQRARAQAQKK
UniProt Q9UGM6: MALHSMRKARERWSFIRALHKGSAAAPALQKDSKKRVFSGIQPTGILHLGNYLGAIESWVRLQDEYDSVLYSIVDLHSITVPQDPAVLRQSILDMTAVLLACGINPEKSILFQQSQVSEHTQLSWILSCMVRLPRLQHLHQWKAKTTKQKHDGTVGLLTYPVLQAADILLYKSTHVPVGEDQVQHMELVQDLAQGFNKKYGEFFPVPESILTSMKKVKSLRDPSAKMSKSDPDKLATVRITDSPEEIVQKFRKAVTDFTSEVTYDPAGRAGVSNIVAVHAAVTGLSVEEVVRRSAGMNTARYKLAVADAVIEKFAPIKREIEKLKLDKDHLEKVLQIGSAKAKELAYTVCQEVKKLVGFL
UniProt Q9NW82: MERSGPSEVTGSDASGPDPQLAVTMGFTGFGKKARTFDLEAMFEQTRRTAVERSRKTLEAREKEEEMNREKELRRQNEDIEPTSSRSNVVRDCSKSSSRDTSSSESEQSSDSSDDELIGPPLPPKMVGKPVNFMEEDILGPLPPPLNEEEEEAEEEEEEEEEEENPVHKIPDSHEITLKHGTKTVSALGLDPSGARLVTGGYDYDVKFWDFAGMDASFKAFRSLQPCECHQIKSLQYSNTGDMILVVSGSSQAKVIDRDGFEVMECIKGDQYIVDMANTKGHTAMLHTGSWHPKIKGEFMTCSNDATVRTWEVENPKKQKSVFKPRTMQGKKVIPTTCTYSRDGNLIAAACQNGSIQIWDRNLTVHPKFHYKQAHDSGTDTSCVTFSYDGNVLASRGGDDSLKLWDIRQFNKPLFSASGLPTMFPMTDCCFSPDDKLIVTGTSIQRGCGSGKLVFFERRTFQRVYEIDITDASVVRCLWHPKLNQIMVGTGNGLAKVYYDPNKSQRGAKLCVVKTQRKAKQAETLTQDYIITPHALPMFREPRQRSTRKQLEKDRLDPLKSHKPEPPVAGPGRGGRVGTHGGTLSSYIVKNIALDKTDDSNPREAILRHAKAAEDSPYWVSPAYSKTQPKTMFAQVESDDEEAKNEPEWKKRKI
UniProt Q9H6Y2: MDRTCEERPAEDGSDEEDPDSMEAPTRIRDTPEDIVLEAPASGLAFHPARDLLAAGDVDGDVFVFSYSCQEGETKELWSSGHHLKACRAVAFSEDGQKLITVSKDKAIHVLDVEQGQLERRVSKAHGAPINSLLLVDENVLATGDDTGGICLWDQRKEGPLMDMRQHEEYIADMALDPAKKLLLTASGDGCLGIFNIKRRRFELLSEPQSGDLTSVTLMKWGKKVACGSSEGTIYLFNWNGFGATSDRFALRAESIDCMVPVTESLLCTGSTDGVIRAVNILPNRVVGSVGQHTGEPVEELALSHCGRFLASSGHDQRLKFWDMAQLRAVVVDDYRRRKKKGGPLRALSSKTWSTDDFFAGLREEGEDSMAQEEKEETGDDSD
UniProt Q3ZAQ7: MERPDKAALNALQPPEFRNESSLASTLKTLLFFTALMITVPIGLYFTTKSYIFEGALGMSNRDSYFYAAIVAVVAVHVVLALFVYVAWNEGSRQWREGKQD
UniProt Q9UEU0: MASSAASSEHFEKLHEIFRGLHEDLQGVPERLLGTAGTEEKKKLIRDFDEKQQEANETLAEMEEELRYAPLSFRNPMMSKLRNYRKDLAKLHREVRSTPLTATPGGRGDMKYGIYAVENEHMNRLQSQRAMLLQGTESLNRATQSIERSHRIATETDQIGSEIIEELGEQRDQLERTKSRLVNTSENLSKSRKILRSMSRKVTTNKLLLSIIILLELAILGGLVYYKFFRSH
UniProt Q9Y484: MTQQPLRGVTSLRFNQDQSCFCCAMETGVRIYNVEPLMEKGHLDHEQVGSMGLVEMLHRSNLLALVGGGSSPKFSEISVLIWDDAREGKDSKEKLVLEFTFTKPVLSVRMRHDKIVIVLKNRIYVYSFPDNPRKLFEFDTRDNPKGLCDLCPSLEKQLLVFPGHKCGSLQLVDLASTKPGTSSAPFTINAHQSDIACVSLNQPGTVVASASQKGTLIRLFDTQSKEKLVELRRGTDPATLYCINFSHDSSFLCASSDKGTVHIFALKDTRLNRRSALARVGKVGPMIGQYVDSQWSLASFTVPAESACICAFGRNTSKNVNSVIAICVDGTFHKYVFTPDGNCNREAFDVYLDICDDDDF
UniProt P49754: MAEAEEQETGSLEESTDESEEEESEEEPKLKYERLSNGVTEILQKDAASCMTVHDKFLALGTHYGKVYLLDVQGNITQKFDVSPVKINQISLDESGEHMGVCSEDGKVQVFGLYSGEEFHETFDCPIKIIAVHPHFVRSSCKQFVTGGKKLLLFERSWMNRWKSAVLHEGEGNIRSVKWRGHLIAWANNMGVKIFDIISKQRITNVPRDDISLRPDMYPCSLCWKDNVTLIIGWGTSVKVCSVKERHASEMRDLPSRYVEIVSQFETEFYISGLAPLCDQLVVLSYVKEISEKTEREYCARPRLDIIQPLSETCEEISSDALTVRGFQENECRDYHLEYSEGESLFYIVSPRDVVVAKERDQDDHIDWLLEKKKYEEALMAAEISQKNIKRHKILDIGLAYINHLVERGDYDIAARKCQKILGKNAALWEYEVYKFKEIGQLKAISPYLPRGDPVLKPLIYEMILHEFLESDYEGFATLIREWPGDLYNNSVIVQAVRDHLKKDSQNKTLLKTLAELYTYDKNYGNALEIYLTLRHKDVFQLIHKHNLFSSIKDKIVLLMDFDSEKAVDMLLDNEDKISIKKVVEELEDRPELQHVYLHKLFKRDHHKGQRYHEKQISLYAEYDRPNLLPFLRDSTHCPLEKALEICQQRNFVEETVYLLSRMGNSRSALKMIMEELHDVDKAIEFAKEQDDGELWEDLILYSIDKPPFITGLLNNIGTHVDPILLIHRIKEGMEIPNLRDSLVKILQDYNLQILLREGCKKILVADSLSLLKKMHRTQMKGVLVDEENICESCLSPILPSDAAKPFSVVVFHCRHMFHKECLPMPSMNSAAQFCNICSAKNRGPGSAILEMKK
UniProt Q9P2S5: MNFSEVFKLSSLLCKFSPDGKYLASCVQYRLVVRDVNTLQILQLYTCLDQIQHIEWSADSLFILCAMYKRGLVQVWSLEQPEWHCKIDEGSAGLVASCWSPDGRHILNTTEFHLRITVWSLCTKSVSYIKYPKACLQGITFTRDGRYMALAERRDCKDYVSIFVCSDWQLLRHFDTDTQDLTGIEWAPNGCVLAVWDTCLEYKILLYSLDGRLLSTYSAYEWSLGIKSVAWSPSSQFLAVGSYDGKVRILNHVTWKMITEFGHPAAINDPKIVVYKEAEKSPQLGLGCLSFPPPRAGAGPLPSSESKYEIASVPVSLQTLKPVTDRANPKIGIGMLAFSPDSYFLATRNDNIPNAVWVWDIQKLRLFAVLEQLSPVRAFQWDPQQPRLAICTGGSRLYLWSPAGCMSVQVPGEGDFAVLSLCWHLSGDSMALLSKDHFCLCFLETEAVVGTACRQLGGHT
UniProt Q96JG6: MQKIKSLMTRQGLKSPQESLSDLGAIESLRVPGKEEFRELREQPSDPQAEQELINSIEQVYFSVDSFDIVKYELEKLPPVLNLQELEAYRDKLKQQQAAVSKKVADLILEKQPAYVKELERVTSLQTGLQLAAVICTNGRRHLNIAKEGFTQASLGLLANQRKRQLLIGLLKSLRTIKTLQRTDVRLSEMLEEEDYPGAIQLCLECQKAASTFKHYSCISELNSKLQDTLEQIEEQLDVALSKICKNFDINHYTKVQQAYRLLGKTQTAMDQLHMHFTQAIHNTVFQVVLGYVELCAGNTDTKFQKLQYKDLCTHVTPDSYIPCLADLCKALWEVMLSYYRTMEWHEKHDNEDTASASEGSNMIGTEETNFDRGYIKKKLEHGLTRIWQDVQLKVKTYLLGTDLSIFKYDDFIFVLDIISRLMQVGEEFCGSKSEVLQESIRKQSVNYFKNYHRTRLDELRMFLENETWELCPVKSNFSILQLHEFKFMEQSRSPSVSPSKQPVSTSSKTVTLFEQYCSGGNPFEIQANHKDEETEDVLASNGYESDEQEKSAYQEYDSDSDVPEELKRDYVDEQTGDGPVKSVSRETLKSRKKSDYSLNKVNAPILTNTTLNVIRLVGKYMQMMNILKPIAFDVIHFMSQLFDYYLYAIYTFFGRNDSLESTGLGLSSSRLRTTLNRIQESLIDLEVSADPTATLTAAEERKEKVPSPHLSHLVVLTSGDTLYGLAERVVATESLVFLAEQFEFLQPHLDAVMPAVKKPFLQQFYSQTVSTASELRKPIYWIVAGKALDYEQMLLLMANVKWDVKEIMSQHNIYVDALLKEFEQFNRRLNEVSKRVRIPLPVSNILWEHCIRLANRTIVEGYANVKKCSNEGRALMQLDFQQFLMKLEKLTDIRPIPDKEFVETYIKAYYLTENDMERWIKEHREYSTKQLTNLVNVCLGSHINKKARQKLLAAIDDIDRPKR
UniProt Q6P4I2: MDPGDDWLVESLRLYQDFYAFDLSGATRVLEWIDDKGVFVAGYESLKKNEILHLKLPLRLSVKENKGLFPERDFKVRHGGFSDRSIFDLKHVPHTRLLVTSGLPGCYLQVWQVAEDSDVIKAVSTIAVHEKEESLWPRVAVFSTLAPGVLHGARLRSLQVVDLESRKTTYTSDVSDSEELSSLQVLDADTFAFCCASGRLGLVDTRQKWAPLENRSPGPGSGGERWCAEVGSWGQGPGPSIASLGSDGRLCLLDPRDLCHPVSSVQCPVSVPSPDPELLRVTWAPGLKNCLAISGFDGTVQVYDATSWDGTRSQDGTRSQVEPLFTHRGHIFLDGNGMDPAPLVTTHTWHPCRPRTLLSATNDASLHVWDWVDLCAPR

[2] = compound: NC(=O)c1cnc(N[C@@H]2CCCC[C@@H]2N)nc1Nc1cccc(-n2nccn2)c1
Summary of the method: as §1

[3] = compound: NC1(c2ccc(-c3nc4ccn5c(=O)[nH]nc5c4cc3-c3ccccc3)cc2)CCC1
Summary of the method: as §1

[4] = compound: NCC(=O)Nc1ccc(-n2nc(C(F)(F)F)cc2-c2ccc3c(ccc4ccccc43)c2)cc1
Summary of the method: as §1

entinostat = compound: Nc1ccccc1NC(=O)c1ccc(CNC(=O)OCc2cccnc2)cc1 [entinostat]
Summary of the method: as §1

vorinostat = compound: O=C(CCCCCCC(=O)Nc1ccccc1)NO [vorinostat]
Summary of the method: as §1

citarinostat = compound: O=C(CCCCCCNC(=O)c1cnc(N(c2ccccc2)c2ccccc2Cl)nc1)NO [citarinostat]
Summary of the method: as §1

silmitasertib = compound: O=C(O)c1ccc2c(c1)nc(Nc1cccc(Cl)c1)c1ccncc12 [silmitasertib]
Summary of the method: as §1

[5] = compound: O=C1NC(=O)C(c2cnc3ccccn23)=C1c1cn2c3c(cc(F)cc13)CN(C(=O)N1CCCCC1)CC2
Summary of the method: as §1

[6] = compound: c1cc(OCCN2CCCCC2)cc(-c2n[nH]c3ccc(-c4nnc[nH]4)cc23)c1
Summary of the method: as §1

Measured: log2 fold change

VPS16 (UniProt Q9H269)
inactive: [1] 0.041 | [2] -0.156 | [3] -0.211 | [4] 0.007 | entinostat 0.084 | vorinostat 0.16 | citarinostat 0.189 | silmitasertib 0.009 | [5] 0.122 | [6] 0

WDR61 (UniProt Q9GZS3)
inactive: [1] -0.013 | [2] -0.058 | [3] -0.102 | [4] -0.069 | entinostat -0.052 | vorinostat 0 | citarinostat 0.028 | silmitasertib -0.005 | [5] -0.045 | [6] -0.057

VPS11 (UniProt Q9H270)
inactive: [1] -0.012 | [2] -0.053 | [3] -0.159 | [4] -0.028 | entinostat 0.015 | vorinostat 0.145 | citarinostat 0.065 | silmitasertib 0.025 | [5] 0.024 | [6] 0.084

WARS2 (UniProt Q9UGM6)
inactive: [1] -0.082 | [2] -0.019 | [3] -0.101 | [4] -0.08 | entinostat 0.076 | vorinostat 0.037 | citarinostat 0.095 | silmitasertib 0.07 | [5] 0.01 | [6] -0.023

VCX3B (UniProt Q9H321)
inactive: [1] -0.023 | [2] -0.01 | [3] 0.067 | [4] 0 | entinostat -0.017 | vorinostat -0.061 | citarinostat -0.039 | silmitasertib -0.072 | [5] -0.062 | [6] -0.058

WDR70 (UniProt Q9NW82)
inactive: [1] 0.003 | [2] 0.002 | [3] -0.042 | [4] -0.01 | entinostat -0.017 | vorinostat -0.024 | citarinostat 0.034 | silmitasertib -0.003 | [5] -0.026 | [6] 0.002

WDR55 (UniProt Q9H6Y2)
inactive: [1] -0.047 | [2] -0.055 | [3] -0.019 | [4] 0.008 | entinostat -0.049 | vorinostat -0.018 | citarinostat 0.005 | silmitasertib 0.013 | [5] -0.034 | [6] -0.021

VPS35L (UniProt Q7Z3J2)
inactive: [1] -0.038 | [2] 0.004 | [3] -0.137 | [4] -0.012 | entinostat 0.006 | vorinostat -0.039 | citarinostat 0.08 | silmitasertib 0.111 | [5] -0.006 | [6] -0.062

VPS13B (UniProt Q7Z7G8)
inactive: [1] -0.064 | [2] -0.033 | [3] -0.069 | [4] -0.039 | entinostat -0.033 | vorinostat 0.041 | citarinostat 0.018 | silmitasertib 0.038 | [5] -0.043 | [6] -0.03

VMA21 (UniProt Q3ZAQ7)
inactive: [1] 0.046 | [2] -0.004 | [3] -0.076 | [4] 0.047 | entinostat 0.036 | vorinostat -0.226 | citarinostat -0.016 | silmitasertib -0.047 | [5] -0.137 | [6] 0.006

VTI1B (UniProt Q9UEU0)
inactive: [1] 0.023 | [2] -0.006 | [3] -0.084 | [4] -0.054 | entinostat -0.031 | vorinostat -0.035 | citarinostat -0.001 | silmitasertib 0.114 | [5] 0.054 | [6] -0.03

VIM (UniProt P08670)
inactive: [1] -0.036 | [2] -0.099 | [3] -0.106 | [4] 0.146 | entinostat -0.02 | vorinostat -0.103 | citarinostat -0.084 | silmitasertib 0.092 | [5] 0.099 | [6] -0.249

WDR7 (UniProt Q9Y4E6)
inactive: [1] -0.227 | [2] -0.017 | [3] 0.104 | [4] -0.019 | entinostat 0.008 | vorinostat 0.036 | citarinostat -0.125 | silmitasertib 0.032 | [5] 0.119 | [6] -0.088

WDR45 (UniProt Q9Y484)
inactive: [1] -0.018 | [2] 0.016 | [3] -0.063 | [4] 0.015 | entinostat -0.013 | vorinostat 0.03 | citarinostat 0.046 | silmitasertib 0.048 | [5] -0.053 | [6] -0.054

WDR37 isoform 2 (UniProt Q9Y2I8)
inactive: [1] -0.041 | [2] -0.01 | [3] -0.052 | [4] -0.08 | entinostat -0.004 | vorinostat -0.068 | citarinostat -0.012 | silmitasertib -0.059 | [5] 0.032 | [6] -0.162

VPS41 (UniProt P49754)
active: [3] -0.267
inactive: [1] -0.006 | [2] -0.163 | [4] -0.163 | entinostat 0.083 | vorinostat 0.072 | citarinostat 0.082 | silmitasertib -0.006 | [5] -0.046 | [6] -0.056

WDR26, A0A499FIZ0
inactive: [1] -0.043 | [2] 0.006 | [3] -0.128 | [4] -0.011 | entinostat 0.004 | vorinostat -0.031 | citarinostat -0.005 | silmitasertib 0.081 | [5] -0.027 | [6] -0.029

WRAP73 (UniProt Q9P2S5)
inactive: [1] 0.1 | [2] 0.042 | [3] 0.032 | [4] 0.022 | entinostat 0.033 | vorinostat -0.036 | citarinostat 0.012 | silmitasertib -0.025 | [5] -0.008 | [6] -0.038

WASHC2C, A0A096LPC5
inactive: [1] -0.084 | [2] -0.208 | [3] -0.06 | [4] -0.058 | entinostat -0.015 | vorinostat -0.209 | citarinostat -0.113 | silmitasertib 0.361 | [5] 0.001 | [6] -0.151

VPS53 isoform 4 (UniProt Q5VIR6)
inactive: [1] -0.036 | [2] -0.062 | [3] -0.105 | [4] -0.021 | entinostat 0.052 | vorinostat 0.018 | citarinostat 0.025 | silmitasertib 0.063 | [5] -0.066 | [6] -0.02

6 neighbouring entries already listed, quoted:
WARS2 (UniProt Q9UGM6)
inactive: [1] -0.082 | [2] -0.019 | [3] -0.101 | [4] -0.08 | entinostat 0.076 | vorinostat 0.037 | citarinostat 0.095 | silmitasertib 0.07 | [5] 0.01 | [6] -0.023

VCX3B (UniProt Q9H321)
inactive: [1] -0.023 | [2] -0.01 | [3] 0.067 | [4] 0 | entinostat -0.017 | vorinostat -0.061 | citarinostat -0.039 | silmitasertib -0.072 | [5] -0.062 | [6] -0.058

WDR70 (UniProt Q9NW82)
inactive: [1] 0.003 | [2] 0.002 | [3] -0.042 | [4] -0.01 | entinostat -0.017 | vorinostat -0.024 | citarinostat 0.034 | silmitasertib -0.003 | [5] -0.026 | [6] 0.002

WDR55 (UniProt Q9H6Y2)
inactive: [1] -0.047 | [2] -0.055 | [3] -0.019 | [4] 0.008 | entinostat -0.049 | vorinostat -0.018 | citarinostat 0.005 | silmitasertib 0.013 | [5] -0.034 | [6] -0.021

VPS35L (UniProt Q7Z3J2)
inactive: [1] -0.038 | [2] 0.004 | [3] -0.137 | [4] -0.012 | entinostat 0.006 | vorinostat -0.039 | citarinostat 0.08 | silmitasertib 0.111 | [5] -0.006 | [6] -0.062

VPS13B (UniProt Q7Z7G8)
inactive: [1] -0.064 | [2] -0.033 | [3] -0.069 | [4] -0.039 | entinostat -0.033 | vorinostat 0.041 | citarinostat 0.018 | silmitasertib 0.038 | [5] -0.043 | [6] -0.03

Following part.

VWA8 (UniProt A3KMH1)
inactive: [1] -0.017 | [2] -0.024 | [3] -0.135 | [4] -0.016 | entinostat 0.008 | vorinostat 0.096 | citarinostat 0.048 | silmitasertib -0.046 | [5] -0.071 | [6] -0.039

VPS18 (UniProt Q9P253)
inactive: [1] 0.019 | [2] -0.13 | [3] -0.216 | [4] 0.079 | entinostat 0.08 | vorinostat 0.089 | citarinostat 0.009 | silmitasertib 0.005 | [5] 0.023 | [6] 0.005

WDR46 (UniProt O15213)
inactive: [1] 0.098 | [2] 0.083 | [3] 0.253 | [4] 0.177 | entinostat -0.027 | vorinostat -0.042 | citarinostat -0.139 | silmitasertib 0.173 | [5] 0.257 | [6] -0.143

WDR47 (UniProt O94967)
inactive: [1] 0.072 | [2] -0.023 | [4] -0.065 | entinostat 0.002 | vorinostat -0.014 | citarinostat 0.014 | silmitasertib 0.089 | [5] 0.004 | [6] 0.282
active: [3] -0.224

VPS50 (UniProt Q96JG6)
inactive: [1] 0.003 | [2] -0.073 | [3] -0.11 | [4] -0.046 | entinostat 0.06 | vorinostat 0.099 | citarinostat 0.068 | silmitasertib 0.06 | [5] 0.037 | [6] 0.003

WDTC1 (UniProt Q8N5D0)
inactive: [1] -0.006 | [2] -0.001 | [3] -0.282 | [4] 0.018 | entinostat -0.012 | vorinostat 0.036 | citarinostat -0.002 | silmitasertib 0.027 | [5] -0.048 | [6] -0.151

WDR73 (UniProt Q6P4I2)
inactive: [1] -0.001 | [2] -0.047 | [3] -0.074 | [4] -0.038 | entinostat -0.011 | vorinostat -0.041 | citarinostat 0.022 | silmitasertib 0.003 | [5] -0.061 | [6] 0.027

— the supplement of paper PMC10849652
